Screening data, single-dose tests

Chains of the proteins cited; added tags and fusions are not shown.
UniProt P9WFT3, whole entry: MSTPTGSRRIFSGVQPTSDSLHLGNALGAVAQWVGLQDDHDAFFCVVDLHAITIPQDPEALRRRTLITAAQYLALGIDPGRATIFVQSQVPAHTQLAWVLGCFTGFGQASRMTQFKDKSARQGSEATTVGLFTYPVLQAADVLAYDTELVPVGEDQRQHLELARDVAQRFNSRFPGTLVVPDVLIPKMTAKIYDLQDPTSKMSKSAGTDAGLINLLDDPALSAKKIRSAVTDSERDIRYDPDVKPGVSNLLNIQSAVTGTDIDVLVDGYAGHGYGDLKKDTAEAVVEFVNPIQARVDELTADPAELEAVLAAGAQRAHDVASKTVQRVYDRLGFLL
UniProt P9WPC5, whole entry: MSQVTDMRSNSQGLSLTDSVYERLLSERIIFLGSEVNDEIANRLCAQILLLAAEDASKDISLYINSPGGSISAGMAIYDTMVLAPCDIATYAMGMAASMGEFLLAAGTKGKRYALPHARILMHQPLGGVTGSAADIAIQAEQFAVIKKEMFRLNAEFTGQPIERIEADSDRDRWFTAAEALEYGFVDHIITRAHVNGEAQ
UniProt P9WPC3, whole entry partner: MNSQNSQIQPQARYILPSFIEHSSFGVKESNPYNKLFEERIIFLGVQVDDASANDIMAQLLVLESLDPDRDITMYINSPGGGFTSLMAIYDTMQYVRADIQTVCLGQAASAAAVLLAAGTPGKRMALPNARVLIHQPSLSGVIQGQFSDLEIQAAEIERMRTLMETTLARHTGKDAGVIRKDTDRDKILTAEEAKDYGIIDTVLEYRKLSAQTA

MtTrpRS: 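Tryptophan-tRNA ligase, Mycobacterium tuberculosis (UniProt P9WFT3). Enzyme assay of tryptophanyl-tRNA synthetase; the read-out is not stated. Concentration: 10 µM. Higher most likely means stronger inhibition; the record gives no direction and few retests gave an IC50. About 65,000 compounds were tested under these conditions; 0.098% (about 64) showed 50% or more at least once.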
ClpP1P2: 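Protease assay of ClpP1P2, read by the AMC dye that it sets free. Target: ClpP1P2, Mycobacterium tuberculosis (UniProt P9WPC5 and UniProt P9WPC3). Tested at 50 µM. Direction is inferred from only a few compounds that gave an IC50; most scored high, so higher reads as stronger inhibition. Most other retested compounds had strongly negative values. Size under these conditions: about 69,000 compounds, about 10 of them at 50% or above in at least one test.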

The filed quantity is “Percent Effect” (%). The controls that fix the scale are not given in the record; negative values are as filed. This is an unselected part of the compounds tested.

{"smiles": "CCCN(Cc1nnnn1C1CC1)CC1COc2ccccc2O1", "stereo": "stereo not drawn", "MtTrpRS": 2.585, "ClpP1P2": 0.4012}
{"smiles": "Cc1ccc(CN2CCC[C@@H]3CN(C(=O)c4ccco4)C[C@@H]32)o1", "MtTrpRS": -4.446, "ClpP1P2": -11.09}
{"smiles": "CC(=O)c1cccc(OCCCC(=O)N(C)Cc2cnn(C)c2)c1", "MtTrpRS": 7.848, "ClpP1P2": -10.9}
{"smiles": "CN(Cc1cnccn1)C(=O)Nc1cc(F)cc(N2CCCC2)c1", "MtTrpRS": -2.293, "ClpP1P2": 3.991}
{"smiles": "CN1CCC(N2CCC(c3ccccc3C(=O)O)C2)CC1", "stereo": "stereo not drawn", "MtTrpRS": -0.6189, "ClpP1P2": 7.686}
{"smiles": "COCCC1(C(=O)O)CCCN(c2cc(C)c3ccccc3n2)C1", "stereo": "stereo not drawn", "MtTrpRS": 0.6536, "ClpP1P2": -4.496}
{"smiles": "Cc1nc(C)c(C(=O)NCCNc2ncccc2C(F)(F)F)s1", "MtTrpRS": -0.565, "ClpP1P2": -29.88}
{"smiles": "COc1cccc(CN2CCC(Cc3cnc(CN(C)C)cn3)CC2)c1", "MtTrpRS": 17.55, "ClpP1P2": -7.199}
{"smiles": "O=C1CC(c2ccco2)c2sc(C(=O)O)c(-c3ccccc3)c2N1", "stereo": "stereo not drawn", "MtTrpRS": -0.2506, "ClpP1P2": 37.46}
{"smiles": "CCCOc1cc(CNC(=O)Nc2ccc(C)cc2)ccn1", "MtTrpRS": -2.761, "ClpP1P2": -1.65}
{"smiles": "NC(=O)Cn1c(CO)cnc1SCC(=O)NCc1ccccc1", "MtTrpRS": -3.917, "ClpP1P2": 22.52}
{"smiles": "CN1C(=O)C(c2ccccc2)CC12CCN(CCO)CC2", "stereo": "stereo not drawn", "MtTrpRS": -10.02, "ClpP1P2": -10.77}
{"smiles": "COCC(C)N(C)C(=O)CCc1c(C)nc2c(C#N)cnn2c1C", "stereo": "stereo not drawn", "MtTrpRS": -3.311, "ClpP1P2": 4.057}
{"smiles": "CCO[C@H]1C[C@@H](O)C12CCN(C1CCN(c3ccccc3)CC1)CC2", "MtTrpRS": -3.84, "ClpP1P2": -21.92}
{"smiles": "CC(C)CC(NC(=O)C1=CCCC1)C(=O)N1CCC(CO)CC1", "stereo": "stereo not drawn", "MtTrpRS": 6.208, "ClpP1P2": -16.81}
{"smiles": "CCc1nsc(NC2CC(=O)N(C3CC3)C2)n1", "stereo": "stereo not drawn", "MtTrpRS": -1.837, "ClpP1P2": 9.529}
{"smiles": "CC(C)C(=O)Nc1cccc(C(=O)Nc2ccccn2)c1", "MtTrpRS": -3.479, "ClpP1P2": -2.863}
{"smiles": "CSCCNC(=O)c1cc(Br)cn1C(C)C", "MtTrpRS": -5.556, "ClpP1P2": -22.58}
{"smiles": "O=C(c1ccc2c(c1)CCO2)N1CCN(c2cnccn2)CC1", "MtTrpRS": -3.129, "ClpP1P2": -14.01}
{"smiles": "O=C(CNc1cc(-n2cnnn2)ccc1F)Nc1ccccc1Cl", "MtTrpRS": 2.314, "ClpP1P2": -13.57}
{"smiles": "COc1cccc2c(=O)n(C3CCNCC3)cnc12", "MtTrpRS": -1.586, "ClpP1P2": -6.951}
{"smiles": "Cc1nc2c(c(C)c1CC(=O)NCc1ccccc1F)c(=O)[nH]n2C", "MtTrpRS": -5.517, "ClpP1P2": -24.37}
{"smiles": "Cc1noc(C)c1CN1CCN(C(=O)C(C(C)C)n2cncn2)CC1", "stereo": "stereo not drawn", "MtTrpRS": -3.809, "ClpP1P2": -14.3}
{"smiles": "c1cncc(COCC2CN(Cc3ccco3)Cc3nccn3C2)c1", "stereo": "stereo not drawn", "MtTrpRS": -7.392, "ClpP1P2": -17.35}
{"smiles": "O=C(NCCn1cnc(C2CCCC2)cc1=O)NCc1cccs1", "MtTrpRS": -3.875, "ClpP1P2": -2.389}
{"smiles": "CCOCCn1c(=O)n(CCC(C)C)c2ncc(C(=O)O)cc21", "MtTrpRS": -3.783, "ClpP1P2": -5.151}
{"smiles": "c1ccc2c(c1)cnn2CCCNC1CCOC2(CCOCC2)C1", "stereo": "stereo not drawn", "MtTrpRS": 1.374, "ClpP1P2": -4.069}
{"smiles": "CC(=O)Cn1nc(-c2ccccc2F)ccc1=O", "MtTrpRS": -4.491, "ClpP1P2": -19.9}
{"smiles": "Cc1cc(N(C)CCOc2ccccc2F)nc(N)n1", "MtTrpRS": -4.231, "ClpP1P2": -0.1073}
{"smiles": "Cc1ccc(N2CCC(N3C[C@@H](CN(C)C)[C@@H](CO)C3)CC2)cc1", "MtTrpRS": -6.745, "ClpP1P2": 5.603}
{"smiles": "CCCS(=O)(=O)NC1CCN(c2nnc(C)c(C)c2C#N)CC1", "MtTrpRS": 2.36, "ClpP1P2": -15.07}
{"smiles": "CCN(CC)CCSc1nnc(N2CCN(c3ccccc3)CC2)s1", "MtTrpRS": -3.707, "ClpP1P2": -15.69}
{"smiles": "Cn1cc(CC(=O)N2CCOC(c3nc(C(C)(C)C)n[nH]3)C2)cn1", "stereo": "stereo not drawn", "MtTrpRS": -0.6173, "ClpP1P2": -11.92}

For reference, 4 entries once more:

- Cc1cc(N(C)CCOc2ccccc2F)nc(N)n1 | MtTrpRS: -4.231%; ClpP1P2: -0.1073%
- CC(C)C(=O)Nc1cccc(C(=O)Nc2ccccn2)c1 | MtTrpRS: -3.479%; ClpP1P2: -2.863%
- Cc1nc2c(c(C)c1CC(=O)NCc1ccccc1F)c(=O)[nH]n2C | MtTrpRS: -5.517%; ClpP1P2: -24.37%
- CCOCCn1c(=O)n(CCC(C)C)c2ncc(C(=O)O)cc21 | MtTrpRS: -3.783%; ClpP1P2: -5.151%

From ChEMBL document CHEMBL3988442, “University of Dundee, Small-Polar-MMV Screening Library” (2021).